Taken from: PubChem BioAssay AID1259331 (Drosophila RNAi Screening Center, 2017)

Test: 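Genes whose knock-down changes cell survival under toxic zinc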 (primary screen)
System: Drosophila S2R+ cells
Reagents: long dsRNA against Drosophila genes
Time to read-out: 5 days (4 days knock-down, then 1 day zinc)
Challenge: zinc chloride at 15 mM final level for 1 day
Measurement: 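Luminescent ATP assay standing in for viability; Z score is the mean over three replicate plates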
Direction: mean Z score: higher = more ATP than other wells, better survival under zinc; ATP luminescence: higher = more ATP, more viable cells
Hit rule: 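Hit when the absolute Z score is greater than 1.5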
Calls: active = hit, ATP up or down; inactive = not a hit
The deposit covers about 3,100 reagents; below is a random part of them. In the full data, 126 (4.1%) were called active. 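Calls are per reagent; zinc was so toxic that few knock-downs lowered ATP further, so most hits raise ATP.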 Raw values vary from plate to plate and are shown uncorrected. Entries without a mark were called inactive. Reagents against one gene are numbered here. Names joined by + are all predicted targets of the reagent. Not given: the amount of reagent.

CG8219 #1 | mean Z score: -0.0182; ATP luminescence, replicate 1: 79314; ATP luminescence, replicate 2: 59432
CG8219 #2 | mean Z score: 0.366; ATP luminescence, replicate 1: 63204; ATP luminescence, replicate 2: 58711
ppk29 (pickpocket 29) #1 | mean Z score: -0.348; ATP luminescence, replicate 1: 45068; ATP luminescence, replicate 2: 37279
ppk29 (pickpocket 29) #2 | mean Z score: -0.53; ATP luminescence, replicate 1: 58025; ATP luminescence, replicate 2: 49606
PGRP-SC1b (Peptidoglycan recognition protein SC1b) | mean Z score: -0.2; ATP luminescence, replicate 1: 28776; ATP luminescence, replicate 2: 29136
Or83a + CG1172 #1 | mean Z score: -0.183; ATP luminescence, replicate 1: 66634; ATP luminescence, replicate 2: 58711
Or83a + CG1172 #2 | mean Z score: -0.0933; ATP luminescence, replicate 1: 54579; ATP luminescence, replicate 2: 64542
ste24b (ste24b prenyl protease type I) #1 | mean Z score: 1.43; ATP luminescence, replicate 1: 88469; ATP luminescence, replicate 2: 96601
ste24b (ste24b prenyl protease type I) #2 | mean Z score: 0.505; ATP luminescence, replicate 1: 62107; ATP luminescence, replicate 2: 61935
NaPi-T (Na[+]-dependent inorganic phosphate cotransporter) #1 | mean Z score: -0.0575; ATP luminescence, replicate 1: 65382; ATP luminescence, replicate 2: 72637
NaPi-T (Na[+]-dependent inorganic phosphate cotransporter) #2 | mean Z score: -0.755; ATP luminescence, replicate 1: 43519; ATP luminescence, replicate 2: 54299
Rdl (Resistant to dieldrin) #1 | mean Z score: -0.419; ATP luminescence, replicate 1: 29685; ATP luminescence, replicate 2: 27610
Rdl (Resistant to dieldrin) #2 | mean Z score: 0.18; ATP luminescence, replicate 1: 67252; ATP luminescence, replicate 2: 63479
GluRIIB (Glutamate receptor IIB) #1 | mean Z score: 2.26 (active); ATP luminescence, replicate 1: 84403; ATP luminescence, replicate 2: 52041
GluRIIB (Glutamate receptor IIB) #2 | mean Z score: -0.209; ATP luminescence, replicate 1: 62890; ATP luminescence, replicate 2: 54056
CG31689 #1 | mean Z score: -0.286; ATP luminescence, replicate 1: 43348; ATP luminescence, replicate 2: 42336
CG31689 #2 | mean Z score: -0.2; ATP luminescence, replicate 1: 58111; ATP luminescence, replicate 2: 58523

A portion from the list above, for reference:
Rdl (Resistant to dieldrin) #2 | mean Z score: 0.18; ATP luminescence, replicate 1: 67252; ATP luminescence, replicate 2: 63479
GluRIIB (Glutamate receptor IIB) #1 | mean Z score: 2.26 (active); ATP luminescence, replicate 1: 84403; ATP luminescence, replicate 2: 52041
